Structures can show the parent of a compound that is named as a salt. Some results were stated once for a whole list of compounds, not compound by compound. For some of these results: For at least one compound, name, drawing or mass did not settle the structure.
Columns and labels:
angiogenesis = assay: Chick embryo assay of Folkman (inhibition of angiogenesis / tumor growth); format: in vivo; conditions: 50 μg/10 μl in the presence of heparin
Method: According to this procedure compounds which are considered to be "active" (i.e. antiangiogenic) give an avascular zone of 4 mm or greater in some embryos when tested at 50 μg/10 μl in the presence of 50 μg/10μ of heparin.

arachidonic acid = assay: Arachidonic Acid Antagonism Assay (AAAA), LD50 of sodium arachidonate; format: in vivo, Charles River male CF-1 mice; conditions: test compound IV 15 min before sodium arachidonate; LD50 outside 95% confidence interval of control
Method: Since these metabolites contribute to the pathological problems associated with stroke, spinal trauma and head injury, compounds which antagonize arachidonic acid are useful in treating stroke, spinal trauma and head injury.
While not necessary to determine arachidonic acid antagonism, the above assay has been modified as follows: Charles River male CF-1 mice weighing 18-22 g are treated IV with the test compound dissolved in 1.0% Tween-80 and 0.1% hydrochloric acid in distilled water, 0.2 ml total volume. Fifteen minutes later sodium arachidonate (90% pure) in physiological (normal) saline is injected into the tail vein. The LD50 is measured using the Spearman-Karber method with a log dose interval of 0.05 (N=6). Compounds which elevate the LD50 outside of the 95% confidence interval of the control LD50 are considered to be "active".

MDA formation = assay: Malonyldialdehyde (MDA) Formation Assay (rat brain synaptosomes); format: biochemical; conditions: 10 min at 37°, pH 7.0; active = 50% or more at 200 μM or less
Method: Since lipid peroxidation is involved in the pathophysiology of center nervous system trauma, compounds which inhibit MDA formation are useful in treating the conditions listed below.
While not necessary to determine MDA formation, the above assays have been modified as follows: rat brain synaptosomes are prepared as described in the Example about the conjugated diene assay, except that the final wash of the synaptosomes and final suspension are in physiological (normal) saline in which the pH has been adjusted to 7.0. The synaptosomes are incubated for 10 min at 37° in physiological (normal) saline pH 7.0 (total volume=100 ul) containing; 10 ul synaptosomal suspension, 10% DMSO plus or minus drug, 150 uM Fe^+++ and 50 uM Fe++. The incubation is started by the rapid addition of iron to the otherwise complete reaction. The iron solutions are prepared fresh as ferric chloride and ferrous ammonium sulfate in argon-purged water. Following the 10 min incubation, the reaction is stopped by the addition of 500 ul ice-cold 12% trichloroacetic acid prepared in 0.5N hydrochloric acid. Water (300 ul) is then added along with 100 ul of freshly prepared thiobarbituric acid (3.3% in 0.5N sodium hydroxide) and 10 ul of 5 mM desferrioxamine. The sample is then heated in a boiling water bath for 20 minutes. The samples are cooled and centrifuged for 15 minutes at 1500×g and the absorbence of the supernatant fraction is read at 532 nm. The % inhibition of MDA formation is calculated by dividing the absorbance of sample containing drug by the absorbence of samples incubated without drug. Reaction blanks are samples incubated in the absence of iron. A compound that inhibits MDA formation by 50% or more at a concentration of 200 μM or less is considered "active".

SMILES	inhibition of angiogenesis (activity in words) (angiogenesis)	arachidonic acid antagonism (activity in words) (arachidonic acid)	inhibition of MDA formation (activity in words) (MDA formation)
CS(=O)(=O)O.Cc1cnc(C)c(N2CCN(CC(=O)[C@@]3(O)CC[C@H]4[C@@H]5CCC6=CC(=O)CC[C@]6(C)C5=CC[C@@]43C)CC2)n1.O [Example 13, 17α-Hydroxy-21-[4-(3,6-dimethylpyrazinyl)-1-piperazinyl]pregna-4,9(11)-diene-3,20-dione monomethane sulfonate hydrate]	demonstrate inhibition of angiogenesis	demonstrate arachidonic acid antagonism	–
C[C@]12CC[C@@H](O)C[C@H]1CC[C@@H]1[C@@H]2C(=O)C[C@@]2(C)[C@H]1CC[C@]2(O)C(=O)CN1CCN(c2ccccn2)CC1 [Example 99, 3α,17α-dihydroxy-21-[4-(2-pyridinyl)-1-piperazinyl]-5β-pregnane-11,20-dione dihydrochloride hydrate]	–	demonstrate arachidonic acid antagonism	–
CCN(CC)c1nc(N2CCN(C)CC2)cc(N2CCN(CC(=O)[C@@]3(O)CC[C@H]4[C@@H]5CCC6=CC(=O)CC[C@]6(C)C5=CC[C@@]43C)CC2)n1.Cl.O [Example 15, 17α-Hydroxy-21-[4-[2-(diethylamino)-6-(4-methyl-1-piperazinyl)-4-pyrimidinyl]-1-piperazinyl]pregna-4,9(11)-diene-3,20-dione hydrochloride hydrate]	demonstrate inhibition of angiogenesis	demonstrate arachidonic acid antagonism	–
CN1CCN(CC(=O)[C@@]2(O)CC[C@H]3[C@@H]4CCC5=CC(=O)CC[C@]5(C)C4=CC[C@@]32C)CC1 [Example 101, 17α-hydroxy-21-(4-methyl-1-piperazinyl)pregna-4,9(11)-diene-3,20-dione]	–	demonstrate arachidonic acid antagonism	–
COc1cccc(N2CCN(CC(=O)[C@@]3(O)CC[C@H]4[C@@H]5CCC6=CC(=O)CC[C@]6(C)C5=CC[C@@]43C)CC2)n1 [Example 11, 17α-Hydroxy-21-[4-(2-methoxyphenyl)-1-piperazinyl]pregna-4,9(11)-diene-3,20-dione]	–	demonstrate arachidonic acid antagonism	–
CCN(CC)c1nc(N2CCCC2)cc(N2CCN(CC(=O)[C@@]3(O)CC[C@H]4[C@@H]5CCC6=CC(=O)CC[C@]6(C)C5=CC[C@@]43C)CC2)n1 [Example 14, 21-[4-[2-(Diethylamino)-6-(1-pyrrolidinyl)-4-pyrimidinyl]-pyrimidinyl]-1-piperazinyl]-17α-hydroxypregna-4,9(11)-diene-3,20-dione dihydrochloride hydrate]	–	demonstrate arachidonic acid antagonism	–
CC(=O)N1CCN(CC(=O)[C@@]2(O)CC[C@H]3[C@@H]4CCC5=CC(=O)CC[C@]5(C)C4=CC[C@@]32C)CC1 [Example 100, 21-(4-acetyl-1-piperazinyl)-17α-hydroxypregna-4,9(11)-diene-3,20-dione]	–	demonstrate arachidonic acid antagonism	–
CCN(CC)c1nc(N2CCCCC2)cc(N2CCN(CC(=O)[C@@]3(O)CC[C@H]4[C@@H]5CCC6=CC(=O)CC[C@]6(C)C5=CC[C@@]43C)CC2)n1.Cl.O [Example 17, 17α-Hydroxy-21-[4-[2-(diethylamino)-6-(1-piperidinyl)-4-pyrimidinyl]-1-piperazinyl]pregna-4,9(11)-diene-3,20-dione hydrochloride hydrate]	demonstrate inhibition of angiogenesis	demonstrate arachidonic acid antagonism	–
C[C@]12CCC(=O)C=C1CC[C@@H]1C2=CC[C@@]2(C)[C@H]1CC[C@]2(O)C(=O)CN1CCN(c2cc(N3CCCC3)ccc2N)CC1.Cl [Example 52, 21-[4-[2-amino-5-(1-pyrrolidinyl)phenyl]-1-piperazinyl]-17α-hydroxypregna-4,9(11)-diene-3,20-dione hydrochloride]	demonstrate inhibition of angiogenesis	–	demonstrate such activity
CCN(CC)c1cc(N2CCN(CC(=O)[C@@]3(O)CC[C@H]4[C@@H]5CCC6=CC(=O)CC[C@]6(C)C5=CC[C@@]43C)CC2)nc(N(CC)CC)n1 [Example 16, 17α-Hydroxy-21-[4-[2,6-bis(diethylamino)pyrimidinyl]-1-piperazinyl]pregna-4,9(11)-diene-3,20-dione dihydrochloride hydrate]	–	demonstrate arachidonic acid antagonism	–
CN(C)c1cc(N2CCN(CC(=O)[C@@]3(O)CC[C@H]4[C@@H]5CCC6=CC(=O)CC[C@]6(C)C5=CC[C@@]43C)CC2)nc(N(C)C)n1.Cl [Example 12, 17α-Hydroxy-21-[4-[2,6-bis(dimethylamino)-4-pyrimidinyl]-1-piperazinyl]pregna-4,9(11)-diene-3,20-dione hydrochloride salt]	demonstrate inhibition of angiogenesis	demonstrate arachidonic acid antagonism	–

— US5506354A, “Imidazolylpiperazinyl steroids” (The Upjohn Company, priority 1992, dated 1996)
